The values below come from the supplement of paper PMC10849652.

By UniProt entry, the sequences of proteins in these tests, tags left out. Where a name states a change or a piece, a line headed by the entry shows the natural chain unless it says otherwise.
UniProt Q9Y692: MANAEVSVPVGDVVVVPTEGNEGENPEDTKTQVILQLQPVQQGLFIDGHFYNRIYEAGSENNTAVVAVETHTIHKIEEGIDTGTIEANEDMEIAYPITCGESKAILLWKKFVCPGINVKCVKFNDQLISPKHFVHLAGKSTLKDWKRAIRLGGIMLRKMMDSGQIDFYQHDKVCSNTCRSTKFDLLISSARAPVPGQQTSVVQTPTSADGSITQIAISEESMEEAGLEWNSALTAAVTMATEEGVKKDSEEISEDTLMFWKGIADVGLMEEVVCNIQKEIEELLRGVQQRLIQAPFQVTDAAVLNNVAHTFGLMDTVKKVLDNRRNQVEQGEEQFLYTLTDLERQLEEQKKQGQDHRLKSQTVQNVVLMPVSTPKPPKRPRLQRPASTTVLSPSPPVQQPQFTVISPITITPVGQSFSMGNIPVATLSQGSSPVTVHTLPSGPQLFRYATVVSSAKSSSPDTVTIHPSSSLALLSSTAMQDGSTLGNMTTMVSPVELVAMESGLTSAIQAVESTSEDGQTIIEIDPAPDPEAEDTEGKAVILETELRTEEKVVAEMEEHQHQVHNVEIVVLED
UniProt Q04760: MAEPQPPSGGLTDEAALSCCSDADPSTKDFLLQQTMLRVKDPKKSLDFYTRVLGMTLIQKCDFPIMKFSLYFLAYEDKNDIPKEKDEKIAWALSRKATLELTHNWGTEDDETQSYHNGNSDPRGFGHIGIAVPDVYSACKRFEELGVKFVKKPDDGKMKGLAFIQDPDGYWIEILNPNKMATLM
UniProt Q9HAV0, whole entry, looked up: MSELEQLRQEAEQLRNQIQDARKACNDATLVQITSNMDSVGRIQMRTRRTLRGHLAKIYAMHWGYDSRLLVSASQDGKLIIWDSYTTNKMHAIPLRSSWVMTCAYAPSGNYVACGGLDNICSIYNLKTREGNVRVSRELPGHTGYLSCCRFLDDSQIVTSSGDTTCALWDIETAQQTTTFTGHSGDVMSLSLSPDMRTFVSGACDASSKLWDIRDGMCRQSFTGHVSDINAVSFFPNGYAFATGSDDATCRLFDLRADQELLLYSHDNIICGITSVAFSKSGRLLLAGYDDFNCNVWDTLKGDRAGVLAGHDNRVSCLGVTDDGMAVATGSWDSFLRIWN
UniProt Q6Y7W6: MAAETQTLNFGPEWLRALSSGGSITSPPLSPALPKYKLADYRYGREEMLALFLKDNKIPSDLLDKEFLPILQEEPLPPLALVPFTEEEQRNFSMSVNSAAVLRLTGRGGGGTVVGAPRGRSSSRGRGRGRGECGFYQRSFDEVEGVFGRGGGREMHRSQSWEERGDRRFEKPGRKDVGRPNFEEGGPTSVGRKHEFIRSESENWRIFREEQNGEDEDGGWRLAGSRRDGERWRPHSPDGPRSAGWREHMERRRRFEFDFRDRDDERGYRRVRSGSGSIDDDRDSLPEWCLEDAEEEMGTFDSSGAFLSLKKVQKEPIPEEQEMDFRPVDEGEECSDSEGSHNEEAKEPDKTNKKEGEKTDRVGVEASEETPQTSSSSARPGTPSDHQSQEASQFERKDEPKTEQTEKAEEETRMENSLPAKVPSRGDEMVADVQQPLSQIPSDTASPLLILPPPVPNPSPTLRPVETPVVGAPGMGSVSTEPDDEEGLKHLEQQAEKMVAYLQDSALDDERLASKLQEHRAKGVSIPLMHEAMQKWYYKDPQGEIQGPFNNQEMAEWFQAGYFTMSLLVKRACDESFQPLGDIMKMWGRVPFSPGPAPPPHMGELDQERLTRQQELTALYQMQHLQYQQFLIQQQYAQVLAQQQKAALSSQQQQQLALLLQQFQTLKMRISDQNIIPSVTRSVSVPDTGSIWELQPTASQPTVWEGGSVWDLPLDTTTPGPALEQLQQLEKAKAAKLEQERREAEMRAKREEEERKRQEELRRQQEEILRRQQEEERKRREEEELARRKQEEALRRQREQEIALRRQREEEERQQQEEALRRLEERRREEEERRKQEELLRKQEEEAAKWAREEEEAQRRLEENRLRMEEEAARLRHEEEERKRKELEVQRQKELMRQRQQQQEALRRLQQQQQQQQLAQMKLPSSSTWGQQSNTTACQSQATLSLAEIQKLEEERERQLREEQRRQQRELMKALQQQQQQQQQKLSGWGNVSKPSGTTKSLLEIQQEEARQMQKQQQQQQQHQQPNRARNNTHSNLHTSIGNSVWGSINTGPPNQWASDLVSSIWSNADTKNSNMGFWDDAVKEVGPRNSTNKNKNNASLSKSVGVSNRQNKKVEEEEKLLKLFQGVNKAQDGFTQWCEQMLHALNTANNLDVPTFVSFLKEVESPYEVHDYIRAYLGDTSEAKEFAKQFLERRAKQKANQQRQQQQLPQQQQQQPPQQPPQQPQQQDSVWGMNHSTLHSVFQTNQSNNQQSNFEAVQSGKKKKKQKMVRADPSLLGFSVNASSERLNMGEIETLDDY
UniProt O94925: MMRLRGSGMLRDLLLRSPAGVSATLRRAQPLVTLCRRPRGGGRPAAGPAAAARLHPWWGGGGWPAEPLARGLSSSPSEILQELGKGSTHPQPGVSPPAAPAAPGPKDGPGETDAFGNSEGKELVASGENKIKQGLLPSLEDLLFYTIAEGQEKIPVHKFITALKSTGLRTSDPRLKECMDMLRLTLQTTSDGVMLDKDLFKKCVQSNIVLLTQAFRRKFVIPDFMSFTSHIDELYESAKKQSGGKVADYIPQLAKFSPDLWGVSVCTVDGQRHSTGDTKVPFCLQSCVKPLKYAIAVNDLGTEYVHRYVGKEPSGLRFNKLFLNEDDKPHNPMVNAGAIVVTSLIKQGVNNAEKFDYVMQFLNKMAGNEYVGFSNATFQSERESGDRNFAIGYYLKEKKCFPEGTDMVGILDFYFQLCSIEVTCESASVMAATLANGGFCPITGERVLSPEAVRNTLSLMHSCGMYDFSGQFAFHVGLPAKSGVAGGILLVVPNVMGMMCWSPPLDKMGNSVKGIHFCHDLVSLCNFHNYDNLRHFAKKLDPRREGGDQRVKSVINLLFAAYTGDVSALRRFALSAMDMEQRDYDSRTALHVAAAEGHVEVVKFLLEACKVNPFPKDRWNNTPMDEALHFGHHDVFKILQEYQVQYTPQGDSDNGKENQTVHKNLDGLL
UniProt Q53EU6: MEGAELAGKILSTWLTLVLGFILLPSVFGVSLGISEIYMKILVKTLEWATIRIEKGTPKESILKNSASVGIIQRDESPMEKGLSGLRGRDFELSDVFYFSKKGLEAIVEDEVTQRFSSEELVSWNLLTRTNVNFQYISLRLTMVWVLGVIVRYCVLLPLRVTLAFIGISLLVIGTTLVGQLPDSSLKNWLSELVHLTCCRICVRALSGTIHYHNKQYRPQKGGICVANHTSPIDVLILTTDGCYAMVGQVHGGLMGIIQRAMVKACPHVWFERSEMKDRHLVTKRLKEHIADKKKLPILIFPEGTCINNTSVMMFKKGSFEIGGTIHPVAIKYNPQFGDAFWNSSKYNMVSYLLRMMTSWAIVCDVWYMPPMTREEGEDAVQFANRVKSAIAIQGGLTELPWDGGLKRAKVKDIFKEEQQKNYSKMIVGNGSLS
UniProt P36959: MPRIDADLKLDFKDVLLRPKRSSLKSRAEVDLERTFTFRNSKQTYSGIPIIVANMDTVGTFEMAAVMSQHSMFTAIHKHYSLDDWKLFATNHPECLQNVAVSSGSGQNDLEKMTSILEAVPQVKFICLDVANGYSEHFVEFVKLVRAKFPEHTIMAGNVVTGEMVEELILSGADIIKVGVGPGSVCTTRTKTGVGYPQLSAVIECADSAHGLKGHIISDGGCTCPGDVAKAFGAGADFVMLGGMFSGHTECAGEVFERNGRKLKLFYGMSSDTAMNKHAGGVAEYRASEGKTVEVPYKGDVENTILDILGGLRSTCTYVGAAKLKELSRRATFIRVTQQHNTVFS
UniProt Q9UKD1: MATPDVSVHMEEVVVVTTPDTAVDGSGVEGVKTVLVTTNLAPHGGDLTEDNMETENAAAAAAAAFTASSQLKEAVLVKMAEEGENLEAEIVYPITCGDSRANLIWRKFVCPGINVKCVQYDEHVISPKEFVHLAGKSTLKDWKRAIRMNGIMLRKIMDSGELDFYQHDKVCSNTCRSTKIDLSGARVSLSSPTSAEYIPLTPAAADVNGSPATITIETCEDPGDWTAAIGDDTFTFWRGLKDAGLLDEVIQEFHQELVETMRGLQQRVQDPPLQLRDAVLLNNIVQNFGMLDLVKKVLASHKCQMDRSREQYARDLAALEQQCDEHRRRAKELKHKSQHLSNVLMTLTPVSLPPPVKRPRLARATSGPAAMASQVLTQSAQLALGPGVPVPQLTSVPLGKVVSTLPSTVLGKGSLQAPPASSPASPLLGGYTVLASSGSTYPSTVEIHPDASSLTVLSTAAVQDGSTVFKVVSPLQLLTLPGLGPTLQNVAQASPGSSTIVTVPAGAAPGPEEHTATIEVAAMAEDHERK
UniProt O60234, whole entry, looked up: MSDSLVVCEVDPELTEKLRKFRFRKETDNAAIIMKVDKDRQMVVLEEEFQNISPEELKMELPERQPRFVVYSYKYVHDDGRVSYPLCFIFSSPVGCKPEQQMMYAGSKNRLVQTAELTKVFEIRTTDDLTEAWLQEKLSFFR
UniProt P00505: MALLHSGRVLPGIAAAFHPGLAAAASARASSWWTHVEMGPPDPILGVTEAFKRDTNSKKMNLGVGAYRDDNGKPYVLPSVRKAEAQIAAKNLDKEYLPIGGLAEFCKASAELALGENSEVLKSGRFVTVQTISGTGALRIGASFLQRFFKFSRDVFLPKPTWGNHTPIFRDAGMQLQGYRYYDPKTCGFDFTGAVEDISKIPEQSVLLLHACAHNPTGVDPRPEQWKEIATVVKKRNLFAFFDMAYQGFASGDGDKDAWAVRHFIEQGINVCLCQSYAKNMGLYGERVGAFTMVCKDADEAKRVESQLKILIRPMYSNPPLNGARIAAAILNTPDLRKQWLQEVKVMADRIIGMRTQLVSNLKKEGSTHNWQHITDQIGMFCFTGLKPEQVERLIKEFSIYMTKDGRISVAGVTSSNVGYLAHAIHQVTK
UniProt P15104, whole entry, looked up: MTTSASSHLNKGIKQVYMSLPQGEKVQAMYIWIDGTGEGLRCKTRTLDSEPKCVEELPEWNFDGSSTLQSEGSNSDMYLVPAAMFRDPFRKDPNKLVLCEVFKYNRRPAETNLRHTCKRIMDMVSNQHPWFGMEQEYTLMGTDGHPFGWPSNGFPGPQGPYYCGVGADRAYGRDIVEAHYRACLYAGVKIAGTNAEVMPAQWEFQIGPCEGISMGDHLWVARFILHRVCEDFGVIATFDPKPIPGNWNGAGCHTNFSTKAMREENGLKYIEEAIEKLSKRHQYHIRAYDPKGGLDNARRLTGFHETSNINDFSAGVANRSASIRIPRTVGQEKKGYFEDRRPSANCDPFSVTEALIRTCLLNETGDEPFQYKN
UniProt O75496: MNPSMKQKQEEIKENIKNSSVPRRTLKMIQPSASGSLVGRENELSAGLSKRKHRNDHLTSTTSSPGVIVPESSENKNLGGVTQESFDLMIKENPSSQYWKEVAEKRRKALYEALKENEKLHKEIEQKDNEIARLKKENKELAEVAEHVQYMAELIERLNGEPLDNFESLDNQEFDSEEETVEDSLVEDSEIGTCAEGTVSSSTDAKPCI
UniProt P13224: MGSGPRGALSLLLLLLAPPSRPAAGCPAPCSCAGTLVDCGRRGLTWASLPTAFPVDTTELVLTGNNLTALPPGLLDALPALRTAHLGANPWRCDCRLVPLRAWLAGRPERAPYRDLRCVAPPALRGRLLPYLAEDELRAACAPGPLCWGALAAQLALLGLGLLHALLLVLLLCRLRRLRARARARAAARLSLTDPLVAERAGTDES
UniProt O15228: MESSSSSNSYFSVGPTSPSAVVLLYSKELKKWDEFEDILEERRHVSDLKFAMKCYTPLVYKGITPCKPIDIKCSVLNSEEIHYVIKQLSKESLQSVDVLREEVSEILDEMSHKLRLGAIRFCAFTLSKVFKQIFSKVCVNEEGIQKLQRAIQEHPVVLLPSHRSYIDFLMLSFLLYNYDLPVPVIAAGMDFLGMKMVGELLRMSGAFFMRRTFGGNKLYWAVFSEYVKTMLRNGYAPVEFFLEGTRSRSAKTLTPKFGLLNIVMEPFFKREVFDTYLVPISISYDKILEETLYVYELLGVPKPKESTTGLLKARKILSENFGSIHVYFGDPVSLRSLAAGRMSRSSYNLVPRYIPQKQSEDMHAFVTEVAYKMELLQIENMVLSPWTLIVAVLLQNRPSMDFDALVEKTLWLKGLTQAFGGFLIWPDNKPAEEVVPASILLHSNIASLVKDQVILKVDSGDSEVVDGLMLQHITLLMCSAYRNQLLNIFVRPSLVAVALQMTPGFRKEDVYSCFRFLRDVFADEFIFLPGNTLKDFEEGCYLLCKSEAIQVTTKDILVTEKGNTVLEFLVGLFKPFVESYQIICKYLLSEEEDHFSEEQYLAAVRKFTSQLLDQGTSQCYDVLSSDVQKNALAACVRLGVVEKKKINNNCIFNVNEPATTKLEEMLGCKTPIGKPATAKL
UniProt Q7Z5G4, whole entry, looked up: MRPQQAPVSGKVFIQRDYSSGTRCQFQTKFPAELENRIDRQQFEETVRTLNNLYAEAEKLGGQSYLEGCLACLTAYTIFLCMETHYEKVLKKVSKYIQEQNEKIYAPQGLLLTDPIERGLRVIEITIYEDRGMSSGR

Some of the results follow.

Compound in the first test: COc1cc2nc(-c3cc(F)ccc3O)nc(N[C@@H]3CNC[C@H]3C(C)(C)O)c2cc1OC
Nature of the test: log2 fold change, soluble protein after heating vs DMSO (PISA); higher = thermal stabilisation; K562 cells, 10 uM, 30 min; active = over 0.2 and 3.5 SD of the protein, either way, in both replicates (recomputed). In a few lines: (§1)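 K562 cells (2×10^6 cells/mL) were treated with 10 μM compound for 30 min, and aliquots were heated for 3 min over 48°C-58°C. Pooled aliquots were extracted in PBS with 0.5% NP-40 at 4°C, and the supernatant after 21,000xg for 90 min was measured by TMTpro 16plex LC-MS/MS with channel sums equalised. Reported thermal stability, relative to control samples and from duplicates, is a log2 fold change.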
In the case of GMEB1 (UniProt Q9Y692), the log2 fold change was inactive: -0.042.
Still for that read-out and setting: as for GLO1 (UniProt Q04760), the figure is inactive: 0.024; as for GOPC (UniProt Q9HD26), active: 0.668.
Same read-out and setting: as for GON4L (UniProt Q3T8J9), the figure is inactive: 0.154; as for GNB4 (UniProt Q9HAV0), inactive: 0.072; as for GPN3 isoform 2 (UniProt Q9UHW5), inactive: -0.086.
Still for that read-out and setting: as for GMPS (UniProt P49915), the figure is inactive: -0.032; as for GINS1 (UniProt Q14691), inactive: -0.034.
GIGYF2 (UniProt Q6Y7W6): the log2 fold change is inactive: 0.07.
Same read-out and setting: as for GLS (UniProt O94925), the figure is inactive: 0.22; as for GPAT3 (UniProt Q53EU6), inactive: 0.161.
On the same count and under the same terms, as for GNPTAB (UniProt Q3T906), the figure is inactive: 0.023; as for GMPR (UniProt P36959), inactive: 0.011.
On to GLB1L2 (UniProt Q8IW92), for which the log2 fold change is inactive: 0.038.
The same measure, in the same setting: as for GOLT1B (UniProt Q9Y3E0), the figure is inactive: -0.043; as for GMEB2 (UniProt Q9UKD1), inactive: 0.053; as for GPD1L (UniProt Q8N335), inactive: 0.047.
On the same count and under the same terms, as for GMFG (UniProt O60234), the figure is inactive: -0.02; as for GNPNAT1 (UniProt Q96EK6), inactive: 0.017.
Same read-out and setting: as for GOT2 (UniProt P00505), the figure is inactive: 0.037.
For the target GLUL (UniProt P15104), the log2 fold change was inactive: -0.061.
Consider GLG1 isoform 2 (UniProt Q92896), for which the log2 fold change is inactive: -0.022.
Still for that read-out and setting: as for GLYR1 (UniProt Q49A26), the figure is inactive: -0.092; as for GOT1 (UniProt P17174), inactive: 0.016.
Same read-out and setting: as for GMNN (UniProt O75496), the figure is inactive: 0.009.
On the same count and under the same terms, as for GP1BB isoform 2 (UniProt P13224), the figure is inactive: -0.016; as for GLRX5 (UniProt Q86SX6), inactive: -0.117.
Turning to GLUD1 (UniProt P00367), the log2 fold change is inactive: -0.001.
The same measure, in the same setting: as for GNPDA1 (UniProt P46926), the figure is inactive: -0.006; as for GLMP (UniProt Q8WWB7), inactive: 0.001.
Same read-out and setting: as for GLRX3 (UniProt O76003), the figure is inactive: 0.012.
Same read-out and setting: as for GNPAT (UniProt O15228), the figure is inactive: -0.022; as for GON7 (UniProt Q9BXV9), inactive: -0.056; as for GOLGA7B (UniProt Q2TAP0), inactive: -0.038.
In the case of GNB2 (UniProt P62879), the log2 fold change is inactive: 0.089.
Still for that read-out and setting: as for GOLGA7 (UniProt Q7Z5G4), the figure is inactive: -0.069.
Consider GINS3 (UniProt Q9BRX5), for which the log2 fold change was inactive: 0.026.

Compound in the next test: COc1cc2ncnc(Nc3ccc(F)c(Cl)c3)c2cc1OCCCN1CCOCC1 [gefitinib]
The test is described as above. A digest of the protocol:
as §1
As for GMEB1 (UniProt Q9Y692), the log2 fold change is inactive: -0.049.
As for GLO1 (UniProt Q04760), the log2 fold change is inactive: 0.028.
On the same count and under the same terms, as for GOPC (UniProt Q9HD26), the figure is inactive: 0.137; as for GON4L (UniProt Q3T8J9), inactive: -0.05; as for GNB4 (UniProt Q9HAV0), inactive: 0.033.
GPN3 isoform 2 (UniProt Q9UHW5): the log2 fold change is inactive: -0.053.
With GMPS (UniProt P49915), the log2 fold change was inactive: 0.017.
Still for that read-out and setting: as for GINS1 (UniProt Q14691), the figure is inactive: 0.031; as for GIGYF2 (UniProt Q6Y7W6), inactive: -0.043.
On the same count and under the same terms, as for GLS (UniProt O94925), the figure is inactive: 0.033; as for GPAT3 (UniProt Q53EU6), inactive: -0.007; as for GNPTAB (UniProt Q3T906), inactive: 0.049.
In the case of GMPR (UniProt P36959), the log2 fold change was inactive: -0.012.
Same read-out and setting: as for GLB1L2 (UniProt Q8IW92), the figure is inactive: -0.078; as for GOLT1B (UniProt Q9Y3E0), inactive: -0.026; as for GMEB2 (UniProt Q9UKD1), inactive: 0.038.
GPD1L (UniProt Q8N335): the log2 fold change is inactive: 0.042.
On the same count and under the same terms, as for GMFG (UniProt O60234), the figure is inactive: 0.028.
Still for that read-out and setting: as for GNPNAT1 (UniProt Q96EK6), the figure is inactive: -0.051; as for GOT2 (UniProt P00505), inactive: 0.021; as for GLUL (UniProt P15104), inactive: 0.01.
The same measure, in the same setting: as for GLG1 isoform 2 (UniProt Q92896), the figure is inactive: -0.004.
On to GLYR1 (UniProt Q49A26), for which the log2 fold change was inactive: 0.113.
As for GOT1 (UniProt P17174), the log2 fold change is inactive: -0.014.
Same read-out and setting: as for GMNN (UniProt O75496), the figure is inactive: 0; as for GP1BB isoform 2 (UniProt P13224), inactive: 0.019; as for GLRX5 (UniProt Q86SX6), inactive: 0.053.
In the case of GLUD1 (UniProt P00367), the log2 fold change was inactive: 0.076.
The same measure, in the same setting: as for GNPDA1 (UniProt P46926), the figure is inactive: -0.013.
On the same count and under the same terms, as for GLMP (UniProt Q8WWB7), the figure is inactive: -0.064.
Same read-out and setting: as for GLRX3 (UniProt O76003), the figure is inactive: -0.009; as for GNPAT (UniProt O15228), inactive: 0.03; as for GON7 (UniProt Q9BXV9), inactive: 0.023.
In the case of GOLGA7B (UniProt Q2TAP0), the log2 fold change is inactive: 0.05.
Same read-out and setting: as for GNB2 (UniProt P62879), the figure is inactive: 0.085; as for GOLGA7 (UniProt Q7Z5G4), inactive: -0.003.
On the same count and under the same terms, as for GINS3 (UniProt Q9BRX5), the figure is inactive: 0.017.
